Structures can show the parent of a compound that is named as a salt. ± gives the standard deviation of the averaged measurements. Some of the results follow. The data scatter; read single values as rough.
System: hAMSC donor 1
Assay: transgenic luciferase activity (RLU/mg protein) fold change vs vehicle control (ratio); hAMSC are human adipose-derived mesenchymal stem cells given an EGFP-luciferase plasmid by lipofection; higher = more transgene expression
Conditions: priming compound concentration 1.7 µM

Compound	transgenic luciferase activity
CC(C)C[C@H](NC(=O)[C@@H](COC(C)(C)C)NC(=O)[C@H](Cc1ccc(O)cc1)NC(=O)[C@H](CO)NC(=O)[C@H](Cc1c[nH]c2ccccc12)NC(=O)[C@H](Cc1cnc[nH]1)NC(=O)[C@@H]1CCC(=O)N1)C(=O)N[C@@H](CCCNC(=N)N)C(=O)N1CCC[C@H]1C(=O)NNC(N)=O [Goserelin acetate]	0.688 ± 0.26
CCN(CC)CC(=O)Nc1c(C)cccc1C [Lidocaine]	1.22 ± 0.91
C=CC[C@@H]1/C=C(\C)C[C@H](C)C[C@H](OC)[C@H]2O[C@@](O)(C(=O)C(=O)N3CCCC[C@H]3C(=O)O[C@H](/C(C)=C/[C@@H]3CC[C@@H](O)[C@H](OC)C3)[C@H](C)[C@@H](O)CC1=O)[C@H](C)C[C@@H]2OC [Tacrolimus]	1.16 ± 0.39
CC[C@@H](CO)NCCN[C@@H](CC)CO [Ethambutol]	0.752 ± 0.033
O=C(O)CCCc1ccccc1 [4-Phenylbutyric acid]	1.17 ± 0.26
O=c1c(-c2ccccc2)c1-c1ccccc1 [Diphenylcyclopropenone]	1.14 ± 0.3
COc1c(N2CCNC(C)C2)c(F)cc2c(=O)c(C(=O)O)cn(C3CC3)c12 (stereo not drawn) [Gatifloxacin]	0.993 ± 0.17
Cc1cnc(C(=O)NCCc2ccc(S(=O)(=O)NC(=O)NC3CCCCC3)cc2)cn1 [Glipizide]	0.915 ± 0.23
CN1CCN(CCCN2c3ccccc3Sc3ccc(Cl)cc32)CC1 [Prochlorperazine maleate]	1.69 ± 0.17
C=C1/C(=C\C=C2/CCC[C@]3(C)[C@@H]([C@H](C)CCCC(C)(C)O)CC[C@@H]23)C[C@@H](O)C[C@@H]1O [Calcitriol]	1.5 ± 0.51
C#C[C@]1(O)CC[C@H]2[C@@H]3CCc4cc(OC)ccc4[C@H]3CC[C@@]21C [Mestranol]	2.27 ± 1.2
Nc1ccn([C@@H]2O[C@H](CO)[C@@H](O)[C@@H]2O)c(=O)n1 [Cytarabine]	0.776 ± 0.17
COc1ccc(CN2CCN(C(c3ccc(F)cc3)c3ccc(F)cc3)CC2)c(OC)c1OC [Lomerizine dihydrochloride]	1.81 ± 1.1
CN[C@@H]1[C@H](O)[C@H](NC)[C@H]2O[C@@]3(O)C(=O)C[C@@H](C)O[C@H]3O[C@@H]2[C@H]1O [Spectinomycin]	1.22 ± 0.45
N[C@@H]1CONC1=O [D-Cycloserine]	1.74 ± 0.24
Cc1nc2ccccn2c(=O)c1CCN1CCC(C(=O)c2ccc(F)cc2)CC1 [Pirenperone]	0.763 ± 0.29
CC1CNc2c(cccc2S(=O)(=O)N[C@@H](CCCNC(=N)N)C(=O)N2CC[C@@H](C)C[C@@H]2C(=O)O)C1 (stereo partly drawn) [Argatroban]	1.72 ± 0.6
O=c1[nH]cnc2c1ncn2[C@H]1CC[C@@H](CO)O1 [Didanosine]	0.792 ± 0.057
CC(C)NCC(O)COc1ccc(COCCOC(C)C)cc1 (stereo not drawn) [Bisoprolol fumarate]	0.79 ± 0.38
O=C1N(c2ccccc2)c2ccccc2C1(Cc1ccncc1)Cc1ccncc1 [Linopirdine dihydrochloride]	1.2 ± 0.23
C[C@@H]1CN(CCCn2c3ccccc3c3ccccc32)C[C@H](C)N1 [Rimcazole dihydrochloride]	1.34 ± 0.17
Nc1nc2ccc(OC(F)(F)F)cc2s1 [Riluzole hydrochloride]	1 ± 0.27
NC(N)=Nc1nc(CSCC/C(N)=N/S(N)(=O)=O)cs1 [Famotidine]	0.791 ± 0.14
CN(C)CCN(Cc1ccccc1)c1ccccn1 [Tripelennamine hydrochloride]	1.69 ± 0.71

Fetched by structure from the list above (2):
Compound	transgenic luciferase activity
NC(N)=Nc1nc(CSCC/C(N)=N/S(N)(=O)=O)cs1 [Famotidine]	0.791 ± 0.14
C=C1/C(=C\C=C2/CCC[C@]3(C)[C@@H]([C@H](C)CCCC(C)(C)O)CC[C@@H]23)C[C@@H](O)C[C@@H]1O [Calcitriol]	1.5 ± 0.51

Same assay, conditions: priming compound concentration 13 µM

Compound	transgenic luciferase activity
O=C1NC(=O)C(c2ccccc2)(c2ccccc2)N1 [Dilantin]	0.743 ± 0.11
O=C1CN(/N=C/c2ccc(-c3ccc([N+](=O)[O-])cc3)o2)C(=O)N1 [Dantrolene sodium]	0.857 ± 0.67
CC(C)(C(=O)c1cccnc1)c1cccnc1 [Metyrapone]	1.4 ± 0.35
Clc1ccc(CO/N=C(\Cn2ccnc2)c2ccc(Cl)cc2Cl)c(Cl)c1 [Oxiconazole nitrate]	0.646 ± 0.15
COc1cccc2c1C(=O)c1c(O)c3c(c(O)c1C2=O)C[C@@](O)(C(C)=O)C[C@@H]3O[C@H]1C[C@H](N)[C@H](O)[C@H](C)O1 [Daunorubicin hydrochloride]	0.0295 ± 0.019
CC/C(=C(\c1ccccc1)c1ccc(OCCN(C)C)cc1)c1ccccc1 [Tamoxifen]	0.459 ± 0.13
CC(C)NCC(O)COc1cccc2ccccc12 (stereo not drawn) [Propranolol hydrochloride]	0.978 ± 0.15
C=C[C@H]1CN2CC[C@H]1C[C@@H]2[C@@H](O)c1ccnc2ccc(OC)cc12 [Quinidine]	0.854 ± 0.25
CC(C)NCC(O)c1ccc(O)c(O)c1 (stereo not drawn) [Isoproterenol hydrochloride]	0.606 ± 0.067
NC(=O)c1cccnc1 [Nicotinamide]	1.02 ± 0.22
CC(=O)Oc1ccccc1C(=O)Nc1ncc([N+](=O)[O-])s1 [Nitazoxanide]	1.61 ± 0.38
CC(C)(C(=O)O)c1ccc(C(O)CCCN2CCC(C(O)(c3ccccc3)c3ccccc3)CC2)cc1 (stereo not drawn) [Fexofenadine hydrochloride]	1.08 ± 0.18
CCN1CCN(c2cc3c(cc2F)c(=O)c(C(=O)O)cn3C2CC2)CC1 [Enrofloxacin]	1.05 ± 0.24
CN(C)CCC=C1c2ccccc2COc2ccccc21 [Doxepin hydrochloride]	1.04 ± 0.17
